Like-named read-outs stand apart in the source and are kept apart here. Results are given in words; binding and its absence hold for the method and conditions named. Binding seen in cells or lysates may run through a third protein. A yes stands for co-enrichment or nearness to the bait. Other partners may have been found. For some of these results: A no says only that the protein was not detected with the bait.

Amino acid sequences for entries named in this document (tags omitted). Residues count along the entry.
UniProt P21860, residues 20-643: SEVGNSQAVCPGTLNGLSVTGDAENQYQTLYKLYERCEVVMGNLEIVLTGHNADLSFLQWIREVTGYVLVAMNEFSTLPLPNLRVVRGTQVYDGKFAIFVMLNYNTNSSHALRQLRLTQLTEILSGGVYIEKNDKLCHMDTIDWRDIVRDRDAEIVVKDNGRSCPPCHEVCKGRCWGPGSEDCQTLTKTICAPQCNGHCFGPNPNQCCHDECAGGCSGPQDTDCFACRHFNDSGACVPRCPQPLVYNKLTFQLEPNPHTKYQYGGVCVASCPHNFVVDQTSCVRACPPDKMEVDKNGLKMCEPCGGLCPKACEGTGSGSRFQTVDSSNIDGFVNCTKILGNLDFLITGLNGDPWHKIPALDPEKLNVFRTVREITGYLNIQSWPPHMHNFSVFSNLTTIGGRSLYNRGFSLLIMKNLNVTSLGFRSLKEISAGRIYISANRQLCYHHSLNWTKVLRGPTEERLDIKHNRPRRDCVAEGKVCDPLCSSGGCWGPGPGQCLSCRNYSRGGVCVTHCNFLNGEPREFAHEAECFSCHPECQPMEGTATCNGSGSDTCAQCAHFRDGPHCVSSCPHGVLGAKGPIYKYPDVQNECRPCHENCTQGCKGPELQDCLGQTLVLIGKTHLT
UniProt Q9NS15, residues 44-1303: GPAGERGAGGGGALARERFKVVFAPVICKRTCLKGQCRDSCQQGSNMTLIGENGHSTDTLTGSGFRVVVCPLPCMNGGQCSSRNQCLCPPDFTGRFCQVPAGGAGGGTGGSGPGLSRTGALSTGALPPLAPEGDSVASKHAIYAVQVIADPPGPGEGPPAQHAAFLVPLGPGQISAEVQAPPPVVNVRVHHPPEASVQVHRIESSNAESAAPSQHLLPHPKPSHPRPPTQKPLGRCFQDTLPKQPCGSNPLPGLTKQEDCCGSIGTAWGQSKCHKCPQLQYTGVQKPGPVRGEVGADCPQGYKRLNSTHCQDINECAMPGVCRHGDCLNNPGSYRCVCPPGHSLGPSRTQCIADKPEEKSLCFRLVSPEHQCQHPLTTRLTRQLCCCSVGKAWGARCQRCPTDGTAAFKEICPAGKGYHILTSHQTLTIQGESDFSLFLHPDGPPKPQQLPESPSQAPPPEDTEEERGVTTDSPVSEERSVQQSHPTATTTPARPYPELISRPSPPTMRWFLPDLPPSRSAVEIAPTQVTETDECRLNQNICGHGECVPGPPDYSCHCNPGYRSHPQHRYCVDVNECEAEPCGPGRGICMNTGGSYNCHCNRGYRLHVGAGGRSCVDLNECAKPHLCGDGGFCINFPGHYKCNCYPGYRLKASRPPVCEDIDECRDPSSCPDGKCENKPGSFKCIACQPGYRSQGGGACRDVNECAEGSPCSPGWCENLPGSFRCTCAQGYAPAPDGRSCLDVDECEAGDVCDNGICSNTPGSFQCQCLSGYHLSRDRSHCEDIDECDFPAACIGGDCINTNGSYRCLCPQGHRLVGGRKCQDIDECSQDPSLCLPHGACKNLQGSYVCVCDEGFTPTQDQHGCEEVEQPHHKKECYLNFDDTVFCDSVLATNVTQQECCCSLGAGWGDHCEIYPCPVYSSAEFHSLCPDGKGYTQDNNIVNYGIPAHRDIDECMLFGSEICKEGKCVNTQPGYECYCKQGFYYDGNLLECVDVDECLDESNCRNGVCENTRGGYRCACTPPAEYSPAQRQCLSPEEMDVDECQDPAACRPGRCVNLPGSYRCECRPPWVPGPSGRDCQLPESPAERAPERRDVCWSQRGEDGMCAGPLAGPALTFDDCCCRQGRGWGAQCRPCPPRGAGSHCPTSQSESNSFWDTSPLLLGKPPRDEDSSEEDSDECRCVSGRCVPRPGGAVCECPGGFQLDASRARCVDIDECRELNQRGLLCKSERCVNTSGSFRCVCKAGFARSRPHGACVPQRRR

Test in all cases: affinity purification with mass spectrometry
For assay [1], the target named is recombinant human HER3 extracellular domain (human) (UniProt P21860).
In assay [2] the target is HER2 extracellular domain (UniProt P04626).
The target in assay [3] is recombinant human HER3 extracellular domain (human) (UniProt P21860). The source holds these as a separate data set.

For “LTBP3 (in EC conditioned medium) (from UniProt Q9NS15 44-1303)”, the binding result in assay [1] is “binds”.

B1: recombinant human LRG1 (leucine-rich alpha-2-glycoprotein 1) (ligand, UniProt P02750 36-347, looked up)
chain: VTLSPKDCQVFRSDHGSSISCQPPAEIPGYLPADTVHLAVEFFNLTHLPANLLQGASKLQELHLSSNGLESLSPEFLRPVPQLRVLDLTRNALTGLPPGLFQASATLDTLVLKENQLEVLEVSWLHGLKALGHLDLSGNRLRKLPPGLLANFTLLRTLDLGENQLETLPPDLLRGPLQLERLHLEGNKLQVLGKDLLLPQPDLRYLFLNGNKLARVAAGAFQGLRQLDMLDLSNNSLASVPEGLWASLGQPNWDMRDGFDISGNPWICDQNLSDLYRWLQAQKDKMFSQNDTRCAGPEAVKGQTLLAVAKSQ
For the molecule B1, the values for the binding result in assay [2] and in assay [3] were “no binding” and “binds”, respectively.

B2: NPR1 (in EC conditioned medium) (protein, UniProt P16066 33-473)
chain: GNLTVAVVLPLANTSYPWSWARVGPAVELALAQVKARPDLLPGWTVRTVLGSSENALGVCSDTAAPLAAVDLKWEHNPAVFLGPGCVYAAAPVGRFTAHWRVPLLTAGAPALGFGVKDEYALTTRAGPSYAKLGDFVAALHRRLGWERQALMLYAYRPGDEEHCFFLVEGLFMRVRDRLNITVDHLEFAEDDLSHYTRLLRTMPRKGRVIYICSSPDAFRTLMLLALEAGLCGEDYVFFHLDIFGQSLQGGQGPAPRRPWERGDGQDVSARQAFQAAKIITYKDPDNPEYLEFLKQLKHLAYEQFNFTMEDGLVNTIPASFHDGLLLYIQAVTETLAHGGTVTDGENITQRMWNRSFQGVTGYLKIDSSGDRETDFSLWDMDPENGAFRVVLNYNGTSQELVAVSGRKLNWPLGYPPPDIPKCGFDNEDPACNQDHLSTLE
With B2, the binding result in assay [3] was “binds”.

The values are drawn from article doi:10.1101/2023.02.18.529070 (bioRxiv, 2023).
